Laboratory results as given in article PMC9939006.

Protein sequences, listed by entry. Tags and fused reporters are not part of them.
UniProt Q4VC05: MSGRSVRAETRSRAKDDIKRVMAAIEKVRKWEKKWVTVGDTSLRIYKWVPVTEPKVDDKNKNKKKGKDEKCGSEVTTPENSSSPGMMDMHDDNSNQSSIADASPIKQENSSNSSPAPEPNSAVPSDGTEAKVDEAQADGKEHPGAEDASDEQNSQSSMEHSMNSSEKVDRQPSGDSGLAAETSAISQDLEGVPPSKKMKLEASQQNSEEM
UniProt Q9BQE9: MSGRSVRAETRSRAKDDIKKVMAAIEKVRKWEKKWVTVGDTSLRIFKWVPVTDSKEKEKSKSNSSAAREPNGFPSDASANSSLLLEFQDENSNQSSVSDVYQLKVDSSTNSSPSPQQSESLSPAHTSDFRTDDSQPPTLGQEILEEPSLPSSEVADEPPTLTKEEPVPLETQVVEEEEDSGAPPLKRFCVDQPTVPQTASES
UniProt Q92782: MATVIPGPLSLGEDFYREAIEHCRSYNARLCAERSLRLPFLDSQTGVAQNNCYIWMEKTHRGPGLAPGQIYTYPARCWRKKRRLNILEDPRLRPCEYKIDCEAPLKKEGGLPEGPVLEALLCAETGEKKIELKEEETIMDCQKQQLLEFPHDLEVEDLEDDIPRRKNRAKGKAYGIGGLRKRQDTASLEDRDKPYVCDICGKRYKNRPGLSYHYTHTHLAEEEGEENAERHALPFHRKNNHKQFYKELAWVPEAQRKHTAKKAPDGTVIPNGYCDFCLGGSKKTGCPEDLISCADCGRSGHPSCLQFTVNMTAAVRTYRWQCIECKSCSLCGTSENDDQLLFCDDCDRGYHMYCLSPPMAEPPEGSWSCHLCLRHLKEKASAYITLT

How the values were obtained:
[1] = molecular target: iBRG1 (inducible WT BRG1, Brahma-related gene 1, with C-terminal V5 tag) (human) (UniProt P51532); experiment: affinity purification with mass spectrometry; anti-V5 immunoprecipitation of iBRG1 or i∆HSA from SW-13 derivative cells after 24 h doxycycline; cells crosslinked with 1% formaldehyde, high-salt extraction (420 mM NaCl), nuclease, diluted 1:5 in IP buffer (100 mM NaCl, 0.1% NP-40), Protein G Dynabeads, on-bead trypsin digest, LC-MS; three biological replicates
[2] = molecular target: i∆HSA (inducible BRG1 with the HSA domain deleted, with C-terminal V5 tag) (human) (UniProt P51532); experiment: as above

Row | Substance | binding [1] | binding [2]
1 | B-cell CLL/lymphoma 7 protein family member A (BCL7A) (from UniProt Q4VC05 1-210) | binds | no binding
2 | B-cell CLL/lymphoma 7 protein family member B (BCL7B) (from UniProt Q9BQE9 1-202) | binds | no binding
3 | BAF45b (from UniProt Q92782 1-387) |  | no binding
4 | B-cell CLL/lymphoma 7 protein family member C (BCL7C) (from UniProt Q8WUZ0 1-217) | binds | no binding

No constants are given. Whether binding was seen depends on the method and setting. In cells and extracts the contact can be indirect. Here binding means that the protein was enriched with, or labelled near, the bait; the list need not be complete. For some of these results: No binding means not detected with the bait.
